The target of the assay is SNAP/FLAG-tagged human GLP-1R (human) (UniProt P43220). Briefly: co-IP.

By UniProt entry, the sequences of proteins in these tests, tags left out. Residues count along the entry.
UniProt P43220, residues 24-463: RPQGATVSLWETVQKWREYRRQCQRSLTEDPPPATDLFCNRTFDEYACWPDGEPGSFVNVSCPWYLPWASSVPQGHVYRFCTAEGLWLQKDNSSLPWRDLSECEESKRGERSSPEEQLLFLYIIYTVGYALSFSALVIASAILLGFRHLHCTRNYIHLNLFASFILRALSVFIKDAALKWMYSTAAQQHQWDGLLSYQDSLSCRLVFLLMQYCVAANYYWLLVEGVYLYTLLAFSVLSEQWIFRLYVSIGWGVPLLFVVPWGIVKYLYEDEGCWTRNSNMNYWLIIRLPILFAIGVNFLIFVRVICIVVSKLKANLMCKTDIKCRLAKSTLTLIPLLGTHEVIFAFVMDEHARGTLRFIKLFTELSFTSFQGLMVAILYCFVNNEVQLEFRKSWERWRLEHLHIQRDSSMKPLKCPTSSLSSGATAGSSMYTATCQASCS
UniProt P46934: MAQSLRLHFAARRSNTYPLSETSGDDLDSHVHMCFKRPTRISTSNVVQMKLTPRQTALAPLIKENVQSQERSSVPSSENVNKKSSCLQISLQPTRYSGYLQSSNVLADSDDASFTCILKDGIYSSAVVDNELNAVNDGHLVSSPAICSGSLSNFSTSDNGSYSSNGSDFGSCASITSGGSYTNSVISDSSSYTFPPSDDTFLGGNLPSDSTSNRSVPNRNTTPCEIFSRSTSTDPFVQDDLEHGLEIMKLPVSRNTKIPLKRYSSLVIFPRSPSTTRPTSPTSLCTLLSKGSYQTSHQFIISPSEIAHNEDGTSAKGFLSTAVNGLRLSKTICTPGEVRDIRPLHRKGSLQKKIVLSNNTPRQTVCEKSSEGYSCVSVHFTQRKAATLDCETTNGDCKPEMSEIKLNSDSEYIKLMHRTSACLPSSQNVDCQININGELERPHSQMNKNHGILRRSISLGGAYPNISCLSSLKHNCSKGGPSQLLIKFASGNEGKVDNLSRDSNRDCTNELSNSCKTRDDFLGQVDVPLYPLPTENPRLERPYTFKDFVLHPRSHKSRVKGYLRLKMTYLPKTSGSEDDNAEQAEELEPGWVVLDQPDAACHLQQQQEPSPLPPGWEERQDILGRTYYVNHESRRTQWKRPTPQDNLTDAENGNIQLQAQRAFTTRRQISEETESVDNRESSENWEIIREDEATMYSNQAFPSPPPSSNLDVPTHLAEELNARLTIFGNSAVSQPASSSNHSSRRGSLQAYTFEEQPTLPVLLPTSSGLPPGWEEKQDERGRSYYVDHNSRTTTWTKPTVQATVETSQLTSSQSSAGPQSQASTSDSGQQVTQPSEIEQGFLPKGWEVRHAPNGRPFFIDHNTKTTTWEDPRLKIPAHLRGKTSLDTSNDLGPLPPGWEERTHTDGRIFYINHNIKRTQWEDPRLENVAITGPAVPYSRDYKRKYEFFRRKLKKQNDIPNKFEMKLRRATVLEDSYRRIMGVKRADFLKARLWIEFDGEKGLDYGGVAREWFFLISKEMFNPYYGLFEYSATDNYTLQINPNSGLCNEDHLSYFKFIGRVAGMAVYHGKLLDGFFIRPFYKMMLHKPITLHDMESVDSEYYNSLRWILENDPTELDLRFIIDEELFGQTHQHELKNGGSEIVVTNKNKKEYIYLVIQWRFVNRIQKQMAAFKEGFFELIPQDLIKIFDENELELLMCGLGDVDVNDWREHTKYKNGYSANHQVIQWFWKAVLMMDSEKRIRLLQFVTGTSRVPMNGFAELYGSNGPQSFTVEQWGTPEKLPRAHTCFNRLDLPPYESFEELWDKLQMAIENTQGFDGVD

Results are given in words; binding and its absence hold for the method and conditions named. In cells and extracts the contact can be indirect. Some results given as binding are weak or reduced against the parent protein; the word gives no strength.

As to “HA-tagged NEDD4 (from UniProt P46934 1-1319) (enzyme)”, the binding entry is “binds”.

The values above are taken from article doi:10.1101/2022.04.21.489075.
